Laboratory results reported in PubChem BioAssay AID504834 (National Center for Advancing Translational Sciences (NCATS), 2011).
Screen size: about 320,000 compounds; about 22,000 (6.9%) were called active. Inconclusive means that the source gave no clear call. Such entries were picked first, then a sample of the others. The call rests on the fitted dose curve; in most records, active means well fitted inhibition curve with a large enough effect; inconclusive means small, poorly fitted or top-dose-only effect, or another doubt; inactive means no such curve, though single readings can be large or run the other way. Where the call is inconclusive, the potency comes from a doubtful curve fit.

Experiment: Primary qHTS for delayed death inhibitors of the malarial parasite plastid, 96 hour incubation
Conditions: P. falciparum luciferase reporter growth; series mostly up to 28.7 µM
Outline: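 Erythrocytes infected with luciferase-expressing P. falciparum were dispensed at 2% hematocrit and 0.05% parasitemia (final), then incubated with compounds 96 hours at 37 C in 5% CO2. Luminescence after detection reagent addition reported growth.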
Potency means the concentration at half of the fitted maximal effect.

Compound	Potency
O=C(CCCN1C(=O)c2cccc3cccc(c23)C1=O)N1CCN(Cc2ccc3c(c2)OCO3)CC1	inconclusive: 18.5 µM [inhibitor, single point]
O=c1ccnc(Nc2ccc(Cl)cc2)[nH]1	inconclusive: 10.4 µM [inhibitor, single point]
Cc1ccc(CSC2=Nc3ccccc3C3=NC(=O)CN23)cc1	inconclusive: 18.5 µM [inhibitor, single point]
COc1ccc(NC(=O)c2cc(C)on2)cc1	inconclusive: 18.5 µM [inhibitor, single point]
CCc1nnc(NC(=O)C2(C)COC(c3ccccc3)OC2)s1 (centres undefined)	inconclusive: 18.5 µM [inhibitor, single point]
CCN(c1ccccc1)S(=O)(=O)c1ccc(OC)c(NC(=O)c2cccs2)c1	inconclusive: 13.1 µM [inhibitor, single point]
O=C(CN(C(=O)CNC(=O)c1cccs1)c1ccc2c(c1)OCCO2)NC1CCCC1	inactive
CC(O)[C@H]1CNCCN1CCc1cc(C(F)(F)F)cc(C(F)(F)F)c1 (some centres undefined)	inconclusive: 18.5 µM [inhibitor, single point]
O=C(CCc1ccccc1)NNC(=O)C12CC3CC(CC(C3)C1)C2	inactive
CCOCCCNC(=O)C1CCN(Cc2ccc(OCc3ccccc3)c(OC)c2)CC1	inconclusive: 5.22 µM [inhibitor, partial curve, poor fit]
Cc1nn(Cc2ccccc2)c2sc(C(=O)N3CCN(Cc4ccc5c(c4)OCO5)CC3)cc12	inconclusive: 18.5 µM [inhibitor, single point]
CCOC(=O)c1nn(-c2ccccc2)c(-c2ccccc2)c1C(=O)c1ccccc1	inconclusive: 9.28 µM [inhibitor, partial curve, poor fit]
COC(=O)c1c(C(=O)OC)c2cccc3cc(-c4ccccc4)c4ccc1c4n32	inconclusive: 6.57 µM [inhibitor, partial curve, poor fit]
CNC(=O)c1c(NC(=O)CCS(=O)(=O)c2ccc(C)cc2)sc2c1CCN(C(=O)OC)C2	inconclusive: 18.5 µM [inhibitor, single point]
CCCn1c(=O)n(C)c(=O)c2c(SCC(=O)Nc3cc(C)on3)nc(C(C)(C)C)nc21	inconclusive: 18.5 µM [inhibitor, single point]
COc1ccc(OCC(=O)Nc2cc(NC(=O)c3ccco3)ccc2OC)cc1	active: 8.28 µM
Cc1ccc(NC(=O)Cn2nnc(C(=O)NCc3ccco3)c2N)cc1	inactive
CCOc1ccc(N2CC(C(=O)NCC(=O)Nc3ccc(F)c(F)c3F)CC2=O)cc1 (centres undefined)	inactive
O=C(CCc1ccccc1)Nc1cc(C(=O)O)cc(C(=O)O)c1	active: 1.47 µM
Cc1nn2c(NC(C)C)c3c(nc2c1-c1ccccc1)CCC3	inconclusive: 16.5 µM [inhibitor, single point]
O=C(Cn1cc(C(=O)C(F)(F)F)c2cc(Br)ccc21)N1CCOCC1	inactive
c1ccc(Nc2ccc(Nc3ccccc3)cc2)cc1	inconclusive: 16.5 µM [inhibitor, single point]

Structures from the list above that contain two or more sulfur atoms (2):
Compound	Potency
CCN(c1ccccc1)S(=O)(=O)c1ccc(OC)c(NC(=O)c2cccs2)c1	inconclusive: 13.1 µM [inhibitor, single point]
CNC(=O)c1c(NC(=O)CCS(=O)(=O)c2ccc(C)cc2)sc2c1CCN(C(=O)OC)C2	inconclusive: 18.5 µM [inhibitor, single point]

(list continues)

Compound	Potency
COc1ccc(NS(=O)(=O)c2c(C)n(C)c(=O)n(C)c2=O)cc1	inconclusive: 0.0415 µM [inhibitor, full curve, poor fit]
COc1ccccc1Nc1nc(Cl)c(C=O)s1	inactive
CCCNC(=O)Cn1cccc1C(=O)c1ccccc1	inconclusive: 0.0828 µM [inhibitor, full curve, poor fit]
O=C(NC(=S)Nc1nc(-c2ccc(Br)cc2)cs1)c1cccnc1	inconclusive: 18.5 µM [inhibitor, single point]
O=[N+]([O-])c1ccc(/C=N/N/C(=N/c2ccccn2)c2ccccn2)cc1	inactive
CSc1nc(N(C)NC(=O)c2ccc(Cl)cc2)c2ccccc2n1	active: 3.7 µM
CN(Cc1ccc(Cl)c(Cl)c1)C(=O)C1CSC2(C)CCC(=O)N12 (centres undefined)	inconclusive: 9.28 µM [inhibitor, single point]
CCOC(=O)c1c(C)[nH]c(C(=O)OCC(=O)c2ccc3c(c2)NC(=O)CO3)c1C	inconclusive: 9.28 µM [inhibitor, partial curve]
Cn1c(=O)c2c(SCc3c(F)cccc3Cl)nc(CC(C)(C)C)nc2n(C)c1=O	inactive
COC(=O)N/N=C/c1cc(C)n(-c2ccc(Br)cc2)c1C	inconclusive: 11.7 µM [inhibitor, single point]
COc1ccc(-c2oc3ccc(-c4cc(OC)c(OC)c(OC)c4)cc3c2C#Cc2ccsc2)cc1	active: 7.38 µM
COc1ccc(C(CNC(=O)CCNS(=O)(=O)c2ccc(Br)cc2)N2CCCC2)cc1 (centres undefined)	active: 2.08 µM
O=C(CN1CCN(S(=O)(=O)c2ccc3c(c2)OCCO3)CC1)Nc1cccc(F)c1	inactive
COc1ccc(F)c(CN2CCN(CCc3ccccc3)C(CCO)C2)c1 (centres undefined)	active: 3.7 µM
CC(C)C(C(=O)Nc1cccnc1)N1C(=O)c2ccccc2C1=O (centres undefined)	inconclusive: 1.65 µM [inhibitor, full curve]
CCOC(=O)N1CCN(C(=O)CNC(=O)c2ccc(Cl)cc2Cl)CC1	inconclusive: 18.5 µM [inhibitor, single point]
COC(=O)c1ccccc1NC(=O)Cn1cnc2cc(C)c(C)cc21	inactive
CCOC(=O)c1nn(-c2ccccc2)cc1O	inactive
COc1ccc(C(=O)Nn2c(SCC(=O)NCc3ccccc3)nc3ccccc3c2=O)cc1	inconclusive: 18.5 µM [inhibitor, single point]
COc1ccccc1-c1nnc(NC(=O)c2cccc(N3C(=O)CCC3=O)c2)o1	inconclusive: 2.33 µM [inhibitor, partial curve, poor fit]
COc1ccccc1NC(=O)c1cc(Cl)ccc1NC(=O)c1ccco1	inconclusive: 18.5 µM [inhibitor, partial curve, poor fit]
O=C(c1n[nH]c2c1CCCC2)n1ccnc1	inconclusive: 10.4 µM [inhibitor, partial curve, poor fit]
